Measurements reported in PubChem BioAssay AID1053208 (Peter MacCallum Cancer Centre, 2014).

Aim: 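Synthetic lethal interactions between gene loss and doxorubicin in osteosarcoma cells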 (primary screen)
Cells: mouse osteosarcoma cells, early-passage culture from an engineered mouse model of fibroblastic bone tumour
Knock-down reagent: siRNA pool against mouse genes, 40 nM
Duration: about 120 h (48 h before drug, then 72 h with drug)
Challenge: doxorubicin 100 nM for 72 h, roughly 30-40% inhibitory dose
Measurement: 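Luminescent ATP signal taken as viability with or without 100 nM doxorubicin for 72 h; mean of two wells set against non-targeting siRNA and turned into robust z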
Reading the numbers: viability z-score with doxorubicin: higher = more viable cells under doxorubicin; viability z-score without drug: higher = more viable cells with knock-down alone
Active means: 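Called active if knock-down leaves viability unchanged without drug (z within -2 to 2) but lowers it with doxorubicin (z at or under -2)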
The deposit covers about 17,000 reagents; shown is an unselected part. Over the whole deposit, 788 (4.7%) got an active call. 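Calls rest on z-score classes alone; an extra cut-off of viability at most 70% of control was not applied to them.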 Unmarked entries are inactive. The numbers tell different reagents against one gene apart. Further read-outs or replicates are left out here.

| Target gene | reagent | combined z-score class | viability z-score with doxorubicin | viability z-score without drug |
| --- | --- | --- | --- | --- |
| Atp7a | 1 | no change with or without drug | -1.57 | -0.17 |
| Abhd11 | 1 | no change with or without drug | -0.67 | 1.01 |
| Or10j2 | 1 | low cell count without drug only | 0.34 | -2.19 |
| Haglr | 1 | no change with or without drug | -0.67 | -0.34 |
| Gpr135 | 1 | no change with or without drug | 0.9 | 1.01 |
| Krtap21-1 | 1 | low cell count with doxorubicin only (active) | -2.14 | -0.84 |
| Krtap21-1 | 2 | no change with or without drug | 0.34 | -1.85 |
| Tbcel | 1 | no change with or without drug | 0 | 0.17 |
| Etfa | 1 | no change with or without drug | -0.22 | 0.51 |
| Hspb3 | 1 | no change with or without drug | 0.9 | 0.17 |
| Lrrc47 | 1 | no change with or without drug | -0.9 | -0.17 |
| Hp | 1 | no change with or without drug | 0.9 | -0.17 |
| B4galt7 | 1 | high cell count with doxorubicin only | 2.7 | 1.52 |
| Tek | 1 | low cell count with doxorubicin only (active) | -2.25 | -1.18 |
| Iars1 | 1 | no change with or without drug | -0.45 | -0.51 |
| Cdk17 | 1 | no change with or without drug | -1.12 | -1.85 |
| Or4k44 | 1 | no change with or without drug | -1.8 | -0.51 |
| Foxn4 | 1 | no change with or without drug | -0.67 | -0.67 |
| Ubxn2a | 1 | no change with or without drug | 0.9 | -0.17 |
| Jun | 1 | no change with or without drug | -1.12 | 0.17 |
| Gemin5 | 1 | no change with or without drug | 0.34 | 1.69 |
| C530043K16Rik | 1 | no change with or without drug | -0.22 | 0.34 |
| Zfp260 | 1 | no change with or without drug | 1.35 | -0.17 |
| Zbtb43 | 1 | no change with or without drug | 0.67 | 1.18 |
| Me1 | 1 | no change with or without drug | 1.12 | 1.52 |
| Adgrg3 | 1 | no change with or without drug | 1.01 | 1.85 |
| Cep72 | 1 | no change with or without drug | 0 | 0.84 |
| Slc16a6 | 1 | low cell count with doxorubicin only (active) | -3.04 | -0.84 |
| Plcd1 | 1 | no change with or without drug | 0.45 | 1.35 |
| Elf4 | 1 | high cell count with doxorubicin only | 2.92 | 0.67 |
| Cimip2b | 1 | no change with or without drug | 0 | 0.34 |
| Crem | 1 | no change with or without drug | 1.91 | -0.17 |
| Vmn1r52 | 1 | no change with or without drug | 0.45 | 0.51 |
| Tmprss11e | 1 | no change with or without drug | -0.22 | 0.17 |
| Slc25a45 | 1 | no change with or without drug | 0 | 0.34 |
| Klhl17 | 1 | no change with or without drug | 0.67 | -0.17 |
| Irf7 | 1 | no change with or without drug | 0.67 | -0.51 |
| Npas4 | 1 | no change with or without drug | -0.56 | 0.51 |
| Mex3d | 1 | no change with or without drug | 1.57 | 0.34 |
| Urod | 1 | no change with or without drug | -0.45 | -0.17 |
| Cks2 | 1 | no change with or without drug | 0.11 | 0.51 |
| 9930111J21Rik2 | 1 | high cell count with and without drug | 2.92 | 2.87 |
| Nts | 1 | no change with or without drug | 0.67 | -0.34 |
| Klk7 | 1 | no change with or without drug | -0.67 | -1.35 |
| Pou2f2 | 1 | no change with or without drug | 1.46 | 0.67 |
| Mmp25 | 1 | no change with or without drug | 0.45 | 1.18 |
| Trib3 | 1 | no change with or without drug | 0.34 | -0.17 |
| Nasp | 1 | no change with or without drug | 0.45 | 0.67 |
| Gab1 | 1 | no change with or without drug | -0.22 | 0.17 |
| Or5m10b | 1 | low cell count without drug only | -0.9 | -2.53 |
